Experimental data taken from patent US20210077461A1, “NEW USE” (Novartis AG, priority 2013, published 2021).

Tested on: patients with chronic symptomatic heart failure and reduced ejection fraction (HF-REF)
Assay: PARADIGM-HF randomized double-blind trial, LCZ696 versus enalapril: efficacy outcomes
Assay type: in vivo, human
Settings: double-blind period
Description: Patients with chronic HF, NYHA functional class II-IV symptoms, an elevated plasma B-type natriuretic peptide (BNP) or NT-proBNP level and, initially, a left ventricular ejection fraction of ≤40% (later amended to ≤35%) are eligible. […] Secondary outcome measures are change in the Kansas City Cardiomyopathy Questionnaire (KCCQ) clinical summary score at 8 months, change in renal function, and time to all-cause mortality.
The trial was designed by the academic members of the Executive Committee (EC) in collaboration with Novartis personnel.
Entry criteria: 1) age 18 years or older and able to give written informed consent 2) New York Heart Association (NYHA) functional class II-IV, 3) left ventricular ejection fraction (LVEF) ≤35% (initially this was ≤40% but changed in a protocol amendment dated Dec. […]
At the screening visit, patient eligibility was assessed according to the inclusion/exclusion criteria. […] Eligibility BNP (and NT-proBNP), serum potassium and estimated glomerular filtration rate (eGFR) were measured in a central laboratory.

Row | Compound | Study drug discontinued excluding death, percent of patients [%]
1 | CCOC(=O)[C@H](CCc1ccccc1)N[C@@H](C)C(=O)N1CCC[C@H]1C(=O)O [Enalapril, (2S)-1-[(2S)-2-{[(2S)-1-ethoxy-1-oxo-4-phenylbutan-2-yl]amino}propanoyl]-pyrrolidine-2-carboxylic acid, reference compound] | 19.8
2 | CCCCC(=O)N(Cc1ccc(-c2ccccc2-c2nn[n-]n2)cc1)C(C(=O)[O-])C(C)C.CCOC(=O)C(C)CC(Cc1ccc(-c2ccccc2)cc1)NC(=O)CCC(=O)[O-].[Na+].[Na+].[Na+] [LCZ696, trisodium [3-((1S,3R)-1-biphenyl-4-ylmethyl-3-ethoxycarbonyl-1-butylcarbamoyl)propionate-(S)-3′-methyl-2′-(pentanoyl{2″-(tetrazol-5-ylate)biphenyl-4′-ylmethyl}amino)butyrate] hemipentahydrate] | 17.8
